# Experimental data taken from PubChem BioAssay AID540276 (National Center for Advancing Translational Sciences (NCATS), 2011).
# Where “and” joins values, the source holds several entries; their conditions need not be identical. Identical values can stand only once. About 5,400 (1.8%) of roughly 300,000 compounds were called active. This list was built around the results that the source calls inconclusive (neither active nor inactive); the mix of calls is not that of the screen. Calls follow the shape of the full dose curve; tested in HEK293 cells. Potencies of inconclusive entries are doubtful fits and often do not repeat. The source holds several records for some structures; these can differ, active in one and inactive in another.
# Assay: qHTS for inhibitors of binding or entry into cells for Marburg Virus
# Conditions: Marburg virus pseudotyped entry inhibition, cell reporter; activity change, negative = inhibition: at 37.8 µM (top of the series) unless noted
# % is scaled to controls: 0 for no effect and ±100 for the full control effect; potency is read from the fitted curve at half-maximal effect.
Structure (SMILES),Potency,"activity change, negative = inhibition"
CC(C)Cn1c(N)c(C(=O)COC(=O)c2ccc(Cl)cc2)c(=O)n(C)c1=O,inactive,–
CC(=O)c1ccc(S(=O)(=O)Nc2ccc(C(=O)NCC(c3ccccc3)N(C)C)cc2)cc1 (centres undefined),"inconclusive: 35.5 µM [inhibitor, single point]",–
Cc1ccc(-c2nc3ccccc3[nH]2)cc1NC(=S)NC(=O)c1ccccc1Br,"inconclusive: 22.4 µM [inhibitor, single point]",–
Cc1cccc(-n2c3nc(=O)[nH]c(=O)c-3cc3cc([N+](=O)[O-])ccc32)c1,"inconclusive: 3.66 µM [inhibitor, partial curve, poor fit]",–
O=C(Nc1ccc(F)cc1F)c1ccc(-c2ccccc2)s1,–,inconclusive: 79.6% [activator] [at 46.1 µM]
CCCCC(c1nnnn1CCOC)N1CCN(C(=O)c2ccco2)CC1 (centres undefined),"inconclusive: 0.398 µM [activator, partial curve, poor fit]",–
CCCCOC(=O)c1ccc(NC(=O)c2ccc3c(c2)CCN3S(=O)(=O)c2ccccc2)cc1,"inconclusive: 35.5 µM [inhibitor, single point]",–
COc1cccc(N2CCN(C(C)C(=O)NC34CC5CC(CC(C5)C3)C4)CC2)c1 (centres undefined),"inconclusive: 7.94 µM [inhibitor, partial curve, poor fit]",–
CCOc1cc(-c2nnc(NC(=O)c3ccco3)o2)cc(OCC)c1OCC,inactive,–
CC(=O)Nc1cccc(NCC(=O)Nc2cc(S(=O)(=O)N3CCCCC3)ccc2Cl)c1,"inconclusive: 0.112 µM [inhibitor, full curve, poor fit]",–
CCC(=O)N1CCN(c2ccc(NC(=O)COc3ccc(C)cc3C)cc2)CC1,"inconclusive: 10 µM [inhibitor, partial curve]",–
Cc1cc(C)nc(Nc2n[nH]c(COc3cccc4ccccc34)n2)n1,"inconclusive: 4.47 µM [inhibitor, full curve, poor fit]",–
Cc1cc([N+](=O)[O-])ccc1NC(=O)Nc1ccc(F)cc1F,"inconclusive: 14.1 µM [inhibitor, single point]",–
CCOC(=O)CC(SP1(=S)OCC2(CCCCC2)CO1)C(=O)OCC (centres undefined),inactive,–
Cc1cc(NC(=O)C2CC(=O)N(c3ccccc3)C2)no1 (centres undefined),"inconclusive: 15.8 µM [activator, single point]",–
COc1ccc2c(c1)/C(=C/c1cc(OC)c(OC)c(OC)c1)C(=O)N2,"inconclusive: 0.355 µM [inhibitor, full curve, poor fit]",–
C[N+]1(CCC(=O)c2ccccc2)CCCCC1,"inconclusive: 7.08 µM [activator, full curve, poor fit]",–
CCOC(=O)C1(C(=O)OCC)CC1c1ccccc1 (centres undefined),inactive,–
CCNc1nc(OCC)nc(N2CCC(Cc3ccccc3)CC2)n1,inactive,–
O=C(NNC1=C(C(=O)C(F)(F)F)CCC1)c1ccc(Cl)cc1,"inconclusive: 23.1 µM [inhibitor, single point]",–
CC1CCN(C(=O)COC(=O)Cn2cnc3ccccc32)CC1,"inconclusive: 1.26 µM [activator, single point]",–
O=C(c1cc(-c2ccccc2)nc2ccccc12)N1CCCc2ccccc21,"inconclusive: 20.6 µM [inhibitor, partial curve, poor fit]",–
COc1cc2c(cc1OC)-c1cc(Nc3cccc(C)c3)nc(=O)n1CC2,"inconclusive: 35.5 µM [inhibitor, partial curve, poor fit]",–

Structure (SMILES),Potency,"activity change, negative = inhibition"
O=C(COC(=O)CCc1ccc(S(=O)(=O)N2CCOCC2)cc1)NC1CCCC1,"inconclusive: 5.62 µM [inhibitor, single point]",–
COc1cc(OC)cc(C(=O)NC(=S)N(Cc2ccccc2)C(C)C)c1,"inconclusive: 35.5 µM [inhibitor, single point]",–
S=c1[nH]nc(Nc2ccccc2Cl)s1,"inconclusive: 12.6 µM [activator, partial curve, poor fit]",–
O=C(/C=C/Nc1ccc(F)cc1)c1cccs1,active: 11.2 µM,–
O=C(CN1CCN(Cc2ccc(Cl)cc2)CC1)N/N=C/c1ccncc1,inactive,–
Cc1cc(C(=O)CS(=O)(=O)c2ccc(F)cc2)cc(C)c1O,"inconclusive: 0.316 µM [inhibitor, partial curve, poor fit]",–
Cc1c(S(=O)(=O)NCCc2ccccc2)c(=O)n(C)c(=O)n1C,"inconclusive: 1 µM [activator, full curve, poor fit]",–
CC(Oc1ccc2ccccc2c1)C(=O)NNC(=O)Nc1ccccc1 (centres undefined),inactive,–
CCC(=O)N1CCc2cc(Br)cc(S(=O)(=O)N3CCCC(C(=O)Nc4ccc(CC)cc4)C3)c21 (centres undefined),"inconclusive: 7.08 µM [activator, full curve, poor fit]",–
Cc1noc(C)c1C(=O)N1CC(C)OC(C)C1 (centres undefined),"inconclusive: 6.31 µM [activator, single point]",–
CC1=NC(C)(C)Cc2ccccc21,inactive,–
CCOC(=O)N1CCC(NC(=O)c2cccs2)CC1,"inconclusive: 11.2 µM [activator, single point]",–
O=C(NC(=S)/C(=C1\CCCCCN1)[N+](=O)[O-])c1ccccc1,"inconclusive: 5.01 µM [inhibitor, full curve]",–
CCN1CCN(c2ccc(S(=O)(=O)N3CCCCC3)cc2NC(=O)c2ccc(F)cc2)CC1,"inconclusive: 32.6 µM [inhibitor, single point]",–
O=C(Nc1ccccc1Br)C1CCN(S(=O)(=O)c2cccs2)CC1,"inconclusive: 31.6 µM [inhibitor, single point]",–
Cc1cc(C)c(S(=O)(=O)NCC(c2ccco2)N2CCc3ccccc3C2)c(C)c1 (centres undefined),inactive,–
CC(C)(C)c1ccc(-c2nc(-c3ccncc3)no2)cc1,"inconclusive: 15.8 µM [inhibitor, single point]",–
Cc1ccc(C(=O)Nc2ccc(Cc3ccncc3)cc2)cc1[N+](=O)[O-],inactive,–
Cn1c(N)c(C(=O)COC(=O)c2cc(S(=O)(=O)N3CCCCC3)ccc2Cl)c(=O)n(C)c1=O,"inconclusive: 11.2 µM [inhibitor, partial curve, poor fit]",–
CCCCn1c(CN2CCN(c3cccc(Cl)c3)CC2)nc2c1c(=O)[nH]c(=O)n2C,active: 1.3 µM,–
COc1ccc(-n2nnnc2C2CCN(S(=O)(=O)c3cccc(Cl)c3C)CC2)cc1,inactive,–
CCOc1ccccc1NC(=O)N1CCCC1C(=O)Nc1ccc(-n2cnnn2)c(C)c1 (centres undefined),"inconclusive: 5.01 µM [inhibitor, full curve, poor fit]",–
CCCCc1nc2cc(C(=O)N3CCC(OCCOC)CC3)ccc2o1,"inconclusive: 14.1 µM [activator, partial curve, poor fit]",–

Structure (SMILES),Potency,"activity change, negative = inhibition"
O=C(NCCCN1CCOCC1)c1cc(-c2ccc(Cl)s2)nc2ccccc12,"inconclusive: 35.5 µM [inhibitor, single point]",–
CCOC(=O)C1=C(C)OC(N)=C(C#N)C1c1ccc(OC)c(CSc2ccccn2)c1 (centres undefined),inactive,–
CC(=O)c1ccc(N2CCN(c3ncc(C(F)(F)F)cc3Cl)CC2)cc1,"inconclusive: 25.1 µM [inhibitor, single point]",–
CCOC(=O)Cc1csc(NC(=O)CC)n1,inactive,–
Cc1ccc(SCC(=O)OC(C)C(=O)Nc2ccc(S(N)(=O)=O)cc2)cc1C (centres undefined),"inconclusive: 0.891 µM [inhibitor, single point]",–
COc1ccccc1N(CC(=O)NCCSCc1cccc(C)c1)S(=O)(=O)c1ccccc1,"inconclusive: 25.1 µM [inhibitor, single point]",–
C/C(=N\Nc1ccccc1)c1cccs1,inactive,–
COc1ccc(CCN(C(=O)C(F)(F)F)C(C(=O)NC2CCCC2)c2cccs2)cc1OC (centres undefined),inactive,–
CO/N=C/c1ccc(N2CCOCC2)c([N+](=O)[O-])c1,inactive,–
O=C(NNC(=S)Nc1ccccc1)Nc1ccccc1,inactive,–
COC(=O)c1cn(CC(=O)NCc2ccco2)c2ccccc12,inactive,–
O=C(NCCc1cccs1)c1ccc(Cl)c(Cl)c1,"inconclusive: 2.51 µM [activator, single point]",–
Cc1ccc(-n2c(SCC(=O)NCc3ccco3)nc3sc4c(c3c2=O)CC(C)(C)SC4)cc1,inactive,–
O=C(OCc1ccccc1F)c1ccc(-c2nnn(Cc3ccccc3)n2)cc1,inactive,–
COc1cccc(NC(=O)C2CCCO2)c1 (centres undefined),"inconclusive: 28.2 µM [activator, single point]",–
COCCCNC(=S)NNC(=S)Nc1ccccc1,"inconclusive: 1.58 µM [activator, partial curve, poor fit]",–
C=CCN(CC(=O)Nc1cccnc1)S(=O)(=O)c1ccc(Cl)cc1,"inconclusive: 25.1 µM [inhibitor, single point]",–
CCCC(=O)N(Cc1cc(=O)[nH]c2ccccc12)c1ccccc1C,"inconclusive: 5.62 µM [activator, single point]",–
NC(=S)Nc1ccc(S(=O)(=O)c2ccc(NC(N)=S)cc2)cc1,"inconclusive: 1.26 µM [inhibitor, single point]",–
COCCOC(=O)C1=C(C)NC(C)=C(C(=O)OC(C)C)C1c1cccc([N+](=O)[O-])c1 (centres undefined),inactive and active: 5.62 µM,–
Cc1cc(N2CCN(C)CC2)ccc1NC(=O)c1cccc(S(=O)(=O)N2CCc3ccccc3C2)c1,"inconclusive: 35.5 µM [inhibitor, single point]",–
COc1ccc(C(CCNCc2ccc(OC)c(OC)c2)c2ccc(F)cc2)cc1 (centres undefined),inactive,–
CC(C)CC(COCc1ccc(Cl)cc1)N1CCN(C(=O)c2ccc(C(F)(F)F)cc2)CCC1=O (centres undefined),"inconclusive: 32.6 µM [inhibitor, single point]",–
